Results from the supplement of paper PMC10849652.
The list shows a part of the results.

The chains behind the UniProt entries cited, without tags or fusion partners. Where a name states a change or a piece, a line headed by the entry shows the natural chain unless it says otherwise.
UniProt Q29RF7: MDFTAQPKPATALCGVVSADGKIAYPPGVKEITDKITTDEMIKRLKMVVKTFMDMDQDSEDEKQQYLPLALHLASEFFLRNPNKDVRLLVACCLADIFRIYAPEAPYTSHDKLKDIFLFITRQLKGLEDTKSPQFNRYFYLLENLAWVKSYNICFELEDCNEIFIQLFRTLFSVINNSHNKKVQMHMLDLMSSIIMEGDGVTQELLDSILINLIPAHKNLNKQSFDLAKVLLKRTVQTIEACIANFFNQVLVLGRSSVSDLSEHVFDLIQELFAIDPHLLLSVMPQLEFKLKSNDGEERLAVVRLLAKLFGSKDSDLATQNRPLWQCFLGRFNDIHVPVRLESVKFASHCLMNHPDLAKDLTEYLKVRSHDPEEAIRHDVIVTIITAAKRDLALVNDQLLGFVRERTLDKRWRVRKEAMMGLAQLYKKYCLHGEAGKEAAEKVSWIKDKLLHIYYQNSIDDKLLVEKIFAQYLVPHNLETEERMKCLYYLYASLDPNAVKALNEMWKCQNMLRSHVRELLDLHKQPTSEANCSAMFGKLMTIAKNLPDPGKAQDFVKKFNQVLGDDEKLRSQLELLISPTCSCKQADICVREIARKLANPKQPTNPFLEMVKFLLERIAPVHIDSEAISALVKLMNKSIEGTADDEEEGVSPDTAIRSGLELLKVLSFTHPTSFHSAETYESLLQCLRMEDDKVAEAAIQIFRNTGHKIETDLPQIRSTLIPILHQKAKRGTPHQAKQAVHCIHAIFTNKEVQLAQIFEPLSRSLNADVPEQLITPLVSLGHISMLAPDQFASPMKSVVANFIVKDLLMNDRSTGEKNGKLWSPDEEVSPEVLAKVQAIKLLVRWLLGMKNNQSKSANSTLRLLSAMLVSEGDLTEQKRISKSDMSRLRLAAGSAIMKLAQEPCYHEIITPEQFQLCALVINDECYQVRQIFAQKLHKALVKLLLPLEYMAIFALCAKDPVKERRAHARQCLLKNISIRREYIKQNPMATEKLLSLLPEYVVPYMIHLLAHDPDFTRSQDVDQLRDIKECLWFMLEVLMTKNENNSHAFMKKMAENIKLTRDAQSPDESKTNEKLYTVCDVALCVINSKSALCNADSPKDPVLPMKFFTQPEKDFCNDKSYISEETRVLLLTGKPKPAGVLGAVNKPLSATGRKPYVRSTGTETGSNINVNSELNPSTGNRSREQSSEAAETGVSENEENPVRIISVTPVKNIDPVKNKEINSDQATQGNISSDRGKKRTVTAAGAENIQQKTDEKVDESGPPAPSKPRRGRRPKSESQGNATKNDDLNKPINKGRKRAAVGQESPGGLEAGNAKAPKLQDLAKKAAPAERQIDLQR
UniProt Q9BRX2, whole entry, looked up: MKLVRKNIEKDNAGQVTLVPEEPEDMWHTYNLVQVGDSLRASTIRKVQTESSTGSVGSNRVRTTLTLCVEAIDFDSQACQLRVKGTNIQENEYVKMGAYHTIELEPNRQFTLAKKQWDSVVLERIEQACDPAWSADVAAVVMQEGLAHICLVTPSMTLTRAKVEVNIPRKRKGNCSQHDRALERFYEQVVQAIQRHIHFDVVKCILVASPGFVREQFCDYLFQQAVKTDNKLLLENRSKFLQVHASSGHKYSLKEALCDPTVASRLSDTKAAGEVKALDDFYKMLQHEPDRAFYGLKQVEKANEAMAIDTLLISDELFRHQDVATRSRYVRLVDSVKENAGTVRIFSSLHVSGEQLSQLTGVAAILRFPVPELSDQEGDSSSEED
UniProt O75781: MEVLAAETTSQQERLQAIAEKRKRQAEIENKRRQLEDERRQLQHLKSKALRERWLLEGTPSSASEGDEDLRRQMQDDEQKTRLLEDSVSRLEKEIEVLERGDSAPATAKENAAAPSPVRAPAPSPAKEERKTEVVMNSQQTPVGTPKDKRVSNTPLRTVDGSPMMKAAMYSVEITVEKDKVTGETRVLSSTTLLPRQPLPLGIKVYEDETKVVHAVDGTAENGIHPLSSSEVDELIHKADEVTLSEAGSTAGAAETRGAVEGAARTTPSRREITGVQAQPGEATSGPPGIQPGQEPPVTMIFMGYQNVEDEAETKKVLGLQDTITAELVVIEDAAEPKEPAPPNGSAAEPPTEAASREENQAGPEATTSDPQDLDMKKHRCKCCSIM
UniProt Q15154: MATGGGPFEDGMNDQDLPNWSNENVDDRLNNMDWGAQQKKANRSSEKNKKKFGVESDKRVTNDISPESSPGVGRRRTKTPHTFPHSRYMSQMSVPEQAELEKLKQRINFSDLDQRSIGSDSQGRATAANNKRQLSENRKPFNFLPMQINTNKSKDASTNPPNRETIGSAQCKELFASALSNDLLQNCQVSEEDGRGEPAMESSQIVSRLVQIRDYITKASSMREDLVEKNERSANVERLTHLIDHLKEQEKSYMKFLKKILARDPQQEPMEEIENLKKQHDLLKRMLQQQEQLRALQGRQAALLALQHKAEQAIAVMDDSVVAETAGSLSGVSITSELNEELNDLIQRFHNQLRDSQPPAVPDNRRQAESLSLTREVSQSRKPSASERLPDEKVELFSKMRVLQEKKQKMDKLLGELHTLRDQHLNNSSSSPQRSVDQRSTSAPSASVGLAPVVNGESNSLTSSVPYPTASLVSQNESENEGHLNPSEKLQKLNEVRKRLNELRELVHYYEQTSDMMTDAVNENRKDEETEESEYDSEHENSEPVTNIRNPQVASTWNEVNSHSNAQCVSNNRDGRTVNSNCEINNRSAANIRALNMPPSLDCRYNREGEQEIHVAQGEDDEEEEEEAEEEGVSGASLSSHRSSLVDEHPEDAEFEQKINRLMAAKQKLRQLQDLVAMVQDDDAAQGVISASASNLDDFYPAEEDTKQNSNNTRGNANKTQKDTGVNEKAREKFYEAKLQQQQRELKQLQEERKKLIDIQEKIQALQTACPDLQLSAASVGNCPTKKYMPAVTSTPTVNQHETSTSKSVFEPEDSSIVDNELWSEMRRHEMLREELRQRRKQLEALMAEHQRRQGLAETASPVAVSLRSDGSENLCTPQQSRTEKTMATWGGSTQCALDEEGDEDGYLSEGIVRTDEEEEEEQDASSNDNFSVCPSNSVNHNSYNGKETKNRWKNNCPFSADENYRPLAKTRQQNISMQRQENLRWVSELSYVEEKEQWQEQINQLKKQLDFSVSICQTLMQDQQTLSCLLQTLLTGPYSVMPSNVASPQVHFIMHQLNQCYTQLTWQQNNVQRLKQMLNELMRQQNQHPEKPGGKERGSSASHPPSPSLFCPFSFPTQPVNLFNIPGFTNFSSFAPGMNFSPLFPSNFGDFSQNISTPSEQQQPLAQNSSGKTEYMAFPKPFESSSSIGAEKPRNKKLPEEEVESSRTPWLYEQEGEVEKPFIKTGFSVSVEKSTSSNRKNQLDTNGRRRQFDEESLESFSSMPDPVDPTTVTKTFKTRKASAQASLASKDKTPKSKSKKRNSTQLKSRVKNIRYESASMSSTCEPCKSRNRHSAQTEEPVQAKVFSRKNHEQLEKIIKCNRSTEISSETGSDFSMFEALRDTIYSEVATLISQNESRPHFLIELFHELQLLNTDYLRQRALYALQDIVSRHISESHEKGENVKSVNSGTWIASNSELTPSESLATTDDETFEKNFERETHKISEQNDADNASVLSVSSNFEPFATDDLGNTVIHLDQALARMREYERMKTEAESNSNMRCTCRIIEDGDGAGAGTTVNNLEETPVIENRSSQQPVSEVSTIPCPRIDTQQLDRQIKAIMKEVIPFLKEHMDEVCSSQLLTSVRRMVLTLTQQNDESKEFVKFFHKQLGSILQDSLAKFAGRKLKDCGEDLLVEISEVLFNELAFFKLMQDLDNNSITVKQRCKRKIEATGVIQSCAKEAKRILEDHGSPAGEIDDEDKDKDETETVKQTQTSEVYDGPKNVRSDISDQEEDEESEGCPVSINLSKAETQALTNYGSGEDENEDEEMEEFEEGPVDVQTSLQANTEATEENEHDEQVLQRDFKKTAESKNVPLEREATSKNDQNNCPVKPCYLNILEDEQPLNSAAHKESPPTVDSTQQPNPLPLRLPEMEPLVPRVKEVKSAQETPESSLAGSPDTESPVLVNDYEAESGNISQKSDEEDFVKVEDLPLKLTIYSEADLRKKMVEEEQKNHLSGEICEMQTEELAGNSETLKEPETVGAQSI
UniProt Q9BYE7: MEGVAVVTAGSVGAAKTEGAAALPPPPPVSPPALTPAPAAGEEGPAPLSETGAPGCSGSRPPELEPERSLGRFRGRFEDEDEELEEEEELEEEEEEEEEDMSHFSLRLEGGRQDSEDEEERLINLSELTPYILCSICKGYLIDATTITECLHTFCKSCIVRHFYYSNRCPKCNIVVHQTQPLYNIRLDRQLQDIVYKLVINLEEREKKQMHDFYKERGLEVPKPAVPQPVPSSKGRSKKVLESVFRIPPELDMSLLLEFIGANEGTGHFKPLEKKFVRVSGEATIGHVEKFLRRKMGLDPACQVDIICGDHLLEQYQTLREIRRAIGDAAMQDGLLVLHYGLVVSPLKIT
UniProt P27815: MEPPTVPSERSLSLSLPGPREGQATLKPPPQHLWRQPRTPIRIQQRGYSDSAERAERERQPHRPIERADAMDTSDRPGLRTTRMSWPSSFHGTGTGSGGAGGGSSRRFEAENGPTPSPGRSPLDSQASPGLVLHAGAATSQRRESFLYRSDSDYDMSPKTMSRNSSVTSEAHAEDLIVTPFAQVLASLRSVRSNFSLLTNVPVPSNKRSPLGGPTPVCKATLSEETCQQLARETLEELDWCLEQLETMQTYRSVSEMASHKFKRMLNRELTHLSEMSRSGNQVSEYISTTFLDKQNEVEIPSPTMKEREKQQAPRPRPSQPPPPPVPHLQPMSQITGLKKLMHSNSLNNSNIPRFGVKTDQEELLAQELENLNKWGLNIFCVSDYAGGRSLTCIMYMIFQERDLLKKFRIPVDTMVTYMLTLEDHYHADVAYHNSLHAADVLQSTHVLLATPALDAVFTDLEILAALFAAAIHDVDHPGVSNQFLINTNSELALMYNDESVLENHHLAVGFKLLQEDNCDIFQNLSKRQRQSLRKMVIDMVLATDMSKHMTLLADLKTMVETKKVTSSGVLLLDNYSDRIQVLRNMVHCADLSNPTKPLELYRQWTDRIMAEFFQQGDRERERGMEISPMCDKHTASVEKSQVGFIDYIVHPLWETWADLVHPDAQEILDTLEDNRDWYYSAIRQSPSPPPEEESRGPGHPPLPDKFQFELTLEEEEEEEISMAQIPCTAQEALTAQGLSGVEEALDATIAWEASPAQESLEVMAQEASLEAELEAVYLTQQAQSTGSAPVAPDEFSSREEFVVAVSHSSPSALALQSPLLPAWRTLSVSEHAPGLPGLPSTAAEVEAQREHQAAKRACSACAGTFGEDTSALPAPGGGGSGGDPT
UniProt Q9H999: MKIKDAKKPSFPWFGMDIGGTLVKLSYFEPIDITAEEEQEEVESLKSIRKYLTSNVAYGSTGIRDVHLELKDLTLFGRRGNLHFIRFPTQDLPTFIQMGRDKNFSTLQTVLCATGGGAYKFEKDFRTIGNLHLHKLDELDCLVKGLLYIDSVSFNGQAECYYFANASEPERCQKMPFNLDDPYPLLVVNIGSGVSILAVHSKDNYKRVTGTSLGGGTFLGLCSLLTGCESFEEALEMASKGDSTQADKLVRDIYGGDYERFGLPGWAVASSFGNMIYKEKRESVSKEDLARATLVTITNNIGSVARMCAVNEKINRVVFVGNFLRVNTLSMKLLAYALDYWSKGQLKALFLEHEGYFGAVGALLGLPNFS
UniProt O60683: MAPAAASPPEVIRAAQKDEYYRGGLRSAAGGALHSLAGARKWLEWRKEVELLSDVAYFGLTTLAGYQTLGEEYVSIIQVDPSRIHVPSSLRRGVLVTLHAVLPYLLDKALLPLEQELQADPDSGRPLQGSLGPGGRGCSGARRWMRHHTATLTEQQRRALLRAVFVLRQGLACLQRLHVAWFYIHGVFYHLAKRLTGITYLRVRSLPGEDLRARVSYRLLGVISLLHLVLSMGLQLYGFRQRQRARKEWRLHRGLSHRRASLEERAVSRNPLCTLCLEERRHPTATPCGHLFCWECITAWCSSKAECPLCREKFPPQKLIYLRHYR
UniProt Q9NV79: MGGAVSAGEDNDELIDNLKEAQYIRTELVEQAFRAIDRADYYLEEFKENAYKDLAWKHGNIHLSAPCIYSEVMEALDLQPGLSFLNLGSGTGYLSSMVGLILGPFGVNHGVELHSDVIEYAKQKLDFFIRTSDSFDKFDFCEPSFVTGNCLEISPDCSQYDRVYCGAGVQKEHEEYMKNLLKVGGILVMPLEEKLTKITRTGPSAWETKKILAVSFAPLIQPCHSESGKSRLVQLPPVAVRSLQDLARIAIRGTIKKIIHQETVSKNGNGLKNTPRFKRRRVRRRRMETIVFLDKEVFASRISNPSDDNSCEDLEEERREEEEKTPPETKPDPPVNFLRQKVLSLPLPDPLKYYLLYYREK
UniProt O60829: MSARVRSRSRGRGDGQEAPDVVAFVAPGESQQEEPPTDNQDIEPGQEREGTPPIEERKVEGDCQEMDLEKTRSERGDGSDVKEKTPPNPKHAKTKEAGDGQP

Assays:
Assay in all cases: log2 fold change, soluble protein after heating vs DMSO (PISA); higher = thermal stabilisation; K562 cells, 10 uM, 30 min; active = over 0.2 and 3.5 SD of the protein, either way, in both replicates (recomputed)
[1] = compound: CS(=O)(=O)c1ccc(-c2cnc(N)c(C(=O)Nc3ccccc3)n2)cc1
Outline: (§1)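 Aliquots of K562 cells (2×10^6 cells/mL) treated with 10 μM compound for 30 min were heated for 3 min over 48°C-58°C. After pooling and extraction in PBS with 0.5% NP-40 at 4°C, soluble protein from a 21,000xg, 90 min spin was quantified by TMTpro 16plex LC-MS/MS with channel sums equalised. Thermal stability is expressed against control samples, from duplicates, as a log2 fold change.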

crizotinib = compound: C[C@@H](Oc1cc(-c2cnn(C3CCNCC3)c2)cnc1N)c1c(Cl)ccc(F)c1Cl [crizotinib]
Outline: as §1

[2] = compound: C[C@@H]1COCCN1C2=NC(=NC(=C2)C3(CC3)S(=O)(=O)C)C4=C5C=CNC5=CC=C4
Outline: as §1

[3] = compound: C[C@H](C1=CC=C(C=C1)C(=O)NC2=C3C=CNC3=NC=C2)N
Outline: as §1

gandotinib = compound: Cc1cc(Nc2cc(CN3CCOCC3)c3nc(C)c(Cc4ccc(Cl)cc4F)n3n2)n[nH]1 [gandotinib]
Outline: as §1

[4] = compound: Cc1cc(SCc2sc(-c3ccc(C(F)(F)F)cc3)nc2C)ccc1OCC(=O)O
Outline: as §1

doramapimod = compound: Cc1ccc(-n2nc(C(C)(C)C)cc2NC(=O)Nc2ccc(OCCN3CCOCC3)c3ccccc23)cc1 [doramapimod]
Outline: as §1

ispinesib = compound: Cc1ccc(C(=O)N(CCCN)[C@@H](c2nc3cc(Cl)ccc3c(=O)n2Cc2ccccc2)C(C)C)cc1 [ispinesib]
Outline: as §1

bafetinib = compound: Cc1ccc(NC(=O)c2ccc(CN3CC[C@H](N(C)C)C3)c(C(F)(F)F)c2)cc1Nc1nccc(-c2cncnc2)n1 [bafetinib]
Outline: as §1

[5] = compound: Cc1cccc(CC(=O)N2CCc3c2ccc(-c2cn(C)c4ncnc(N)c24)c3F)n1
Outline: as §1

nilotinib = compound: Cc1cn(-c2cc(NC(=O)c3ccc(C)c(Nc4nccc(-c5cccnc5)n4)c3)cc(C(F)(F)F)c2)cn1 [nilotinib]
Outline: as §1

[6] = compound: Cc1nc(Nc2n[nH]c3c2CN(C(=O)N[C@H](CN(C)C)c2ccccc2)C3(C)C)c2sccc2n1
Outline: as §1

dasatinib = compound: Cc1nc(Nc2ncc(C(=O)Nc3c(C)cccc3Cl)s2)cc(N2CCN(CCO)CC2)n1 [dasatinib]
Outline: as §1

[7] = compound: Cc1ncc(-c2ccnc(Nc3ccc(S(C)(=O)=O)cc3)n2)n1C(C)C
Outline: as §1

[8] = compound: Cn1cc(-c2ccc3c(c2)CCN3C(=O)Cc2cccc(C(F)(F)F)c2)c2c(N)ncnc21
Outline: as §1

[9] = compound: Cn1cc(-c2ccc3nnc(C(F)(F)c4ccc5ncccc5c4)n3n2)cn1
Outline: as §1

tipifarnib = compound: Cn1cncc1[C@@](N)(c1ccc(Cl)cc1)c1ccc2c(c1)c(-c1cccc(Cl)c1)cc(=O)n2C [tipifarnib]
Outline: as §1

mubritinib = compound: FC(F)(F)c1ccc(/C=C/c2nc(COc3ccc(CCCCn4ccnn4)cc3)co2)cc1 [mubritinib]
Outline: as §1

duvelisib = compound: C[C@H](Nc1ncnc2nc[nH]c12)c1cc2cccc(Cl)c2c(=O)n1-c1ccccc1 [duvelisib]
Outline: as §1

tozasertib = compound: Cc1cc(Nc2cc(N3CCN(C)CC3)nc(Sc3ccc(NC(=O)C4CC4)cc3)n2)n[nH]1 [tozasertib]
Outline: as §1

Measured: log2 fold change

PDS5A (UniProt Q29RF7)
inactive: [1] 0.03 | crizotinib -0.383 | [2] 0.063 | [3] 0.043 | gandotinib -0.099 | [4] 0.182 | doramapimod -0.057 | ispinesib -0.127 | bafetinib -0.055 | [5] 0.008 | nilotinib -0.397 | [6] -0.164 | dasatinib -0.3 | [7] 0.001 | [8] 0.08 | [9] 0.123 | tipifarnib -0.231 | mubritinib 0.157

PELO (UniProt Q9BRX2)
inactive: [1] 0.026 | crizotinib -0.15 | [2] -0.037 | [3] 0.158 | gandotinib -0.096 | [4] 0.07 | doramapimod 0.077 | ispinesib -0.336 | bafetinib 0.068 | [5] 0.155 | nilotinib -0.021 | [6] -0.067 | dasatinib -0.054 | [7] -0.02 | [8] 0.042 | [9] 0.061 | tipifarnib -0.136 | mubritinib -0.111

PALM (UniProt O75781)
inactive: crizotinib 0.158 | doramapimod 0.19 | mubritinib 0.04

PAF1 (UniProt Q8N7H5)
inactive: [2] -0.049 | [3] 0.228 | duvelisib -0.04 | gandotinib 0.062 | [4] 0.191 | ispinesib -0.06 | [5] -0.1 | dasatinib -0.04 | [8] 0.208 | [9] -0.025 | mubritinib -0.061

PCM1 isoform 2 (UniProt Q15154)
inactive: [1] 0.063 | duvelisib 0.003 | gandotinib -0.275 | [4] -0.077 | [5] 0.209 | dasatinib 0.07 | mubritinib -0.163

PAFAH1B1 (UniProt I3L3N5)
inactive: crizotinib 0.121 | [3] 0.195 | duvelisib 0.175 | [4] -0.129 | doramapimod 0.032 | bafetinib -0.04 | dasatinib 0.167 | [8] -0.215 | tipifarnib 0.065 | mubritinib 0.061

PCGF6 (UniProt Q9BYE7)
inactive: duvelisib 0.055 | [4] 0.072 | dasatinib -0.036

PDE4A (UniProt P27815)
inactive: crizotinib 0.055 | [2] -0.102 | [3] -0.171 | doramapimod 0.065 | ispinesib -0.098 | bafetinib -0.157 | [8] -0.016 | [9] 0.021 | tipifarnib -0.108

PANK3 (UniProt Q9H999)
inactive: [1] 0.184 | [2] -0.032 | [3] -0.072 | duvelisib 0.049 | gandotinib 0.033 | tozasertib -0.131 | [4] 0.185 | ispinesib -0.015 | bafetinib -0.06 | [5] -0.04 | nilotinib -0.018 | [6] 0.146 | dasatinib 0.067 | [7] -0.103 | [8] 0.204 | [9] 0.055 | tipifarnib -0.003

PAPOLA (UniProt G3XAH6)
inactive: nilotinib -0.129 | [6] -0.249 | [7] -0.063

Quoted at random: 2 records from the list.
PAFAH1B1 (UniProt I3L3N5)
inactive: crizotinib 0.121 | [3] 0.195 | duvelisib 0.175 | [4] -0.129 | doramapimod 0.032 | bafetinib -0.04 | dasatinib 0.167 | [8] -0.215 | tipifarnib 0.065 | mubritinib 0.061

PDE4A (UniProt P27815)
inactive: crizotinib 0.055 | [2] -0.102 | [3] -0.171 | doramapimod 0.065 | ispinesib -0.098 | bafetinib -0.157 | [8] -0.016 | [9] 0.021 | tipifarnib -0.108

Additional entries follow.

PEX10 isoform 2 (UniProt O60683)
inactive: [1] -0.032 | [3] 0.002 | duvelisib 0.032 | gandotinib -0.053 | tozasertib 0.012 | [4] 0.055 | [5] 0.035 | dasatinib 0.112 | [8] -0.001 | tipifarnib -0.063 | mubritinib 0.237

PDIA4, A0A499FI48
inactive: crizotinib 0.177 | duvelisib -0.054 | gandotinib -0.021 | tozasertib 0.038 | [4] 0 | doramapimod 0.065 | ispinesib -0.077 | [5] -0.141 | dasatinib -0.203 | [9] -0.088 | tipifarnib 0.188 | mubritinib -0.043

PCMTD2 (UniProt Q9NV79)
inactive: tozasertib 0.005 | ispinesib -0.162 | nilotinib -0.012 | [6] 0.119 | [7] 0.25 | [9] 0.08 | mubritinib 0.031

PAICS (UniProt D6RF62)
inactive: duvelisib 0.079 | gandotinib -0.008 | [4] -0.137 | ispinesib -0.208 | [5] 0.396 | dasatinib 0.217 | [9] -0.084 | tipifarnib 0.207

PAGE4 (UniProt O60829)
inactive: [1] -0.174 | [2] 0.112 | [3] 0.189 | gandotinib -0.113 | tozasertib 0.052 | ispinesib -0.23 | bafetinib -0.488 | [5] -0.289 | nilotinib -0.06 | [6] 0.005 | [7] -0.094 | [8] -0.095 | [9] -0.166 | mubritinib 0.071
